Source: ChEMBL document CHEMBL3525994, “Lysosomal sequestration (trapping) of lipophilic amine (cationic amphiphilic) drugs in immortalized human hepatocytes (Fa2N-4 cells)” (Drug Metab Dispos, 2013)

Assay: Drug uptake in lysosomes of human Fa2N-4 cells assessed as inhibition of LysoTracker Red fluorescence after 30 mins
Assay type: ADME, cell-based, Lysosome
Details: Fa2N-4, 0.5 h

CC(C)NCC(O)COc1cccc2ccccc12 (stereo unspecified) [PROPRANOLOL]
IC50: 92 µM
